This is one part of the list.
compound: c1cn2cc(-c3ccc4cn[nH]c4c3)nc(Nc3ccc(N4CCOCC4)cc3)c2n1 [entospletinib]; test: log2 fold change, soluble protein after heating vs DMSO (PISA); higher = thermal stabilisation; K562 cells, 10 uM, 30 min; active = over 0.2 and 3.5 SD of the protein, either way, in both replicates (recomputed)
Method in brief: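 K562 cells (2×10^6 cells/mL) were treated with 10 μM compound for 30 min, and aliquots were heated for 3 min over 48°C-58°C. Pooled aliquots were extracted in PBS with 0.5% NP-40 at 4°C, and the supernatant after 21,000xg for 90 min was measured by TMTpro 16plex LC-MS/MS with channel sums equalised. Reported thermal stability, relative to control samples and from duplicates, is a log2 fold change.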

Chains of the proteins cited; added tags and fusions are not shown. Lines headed by an entry give the natural chain unless they say otherwise; changes in a name come on top.
UniProt Q7Z2K6: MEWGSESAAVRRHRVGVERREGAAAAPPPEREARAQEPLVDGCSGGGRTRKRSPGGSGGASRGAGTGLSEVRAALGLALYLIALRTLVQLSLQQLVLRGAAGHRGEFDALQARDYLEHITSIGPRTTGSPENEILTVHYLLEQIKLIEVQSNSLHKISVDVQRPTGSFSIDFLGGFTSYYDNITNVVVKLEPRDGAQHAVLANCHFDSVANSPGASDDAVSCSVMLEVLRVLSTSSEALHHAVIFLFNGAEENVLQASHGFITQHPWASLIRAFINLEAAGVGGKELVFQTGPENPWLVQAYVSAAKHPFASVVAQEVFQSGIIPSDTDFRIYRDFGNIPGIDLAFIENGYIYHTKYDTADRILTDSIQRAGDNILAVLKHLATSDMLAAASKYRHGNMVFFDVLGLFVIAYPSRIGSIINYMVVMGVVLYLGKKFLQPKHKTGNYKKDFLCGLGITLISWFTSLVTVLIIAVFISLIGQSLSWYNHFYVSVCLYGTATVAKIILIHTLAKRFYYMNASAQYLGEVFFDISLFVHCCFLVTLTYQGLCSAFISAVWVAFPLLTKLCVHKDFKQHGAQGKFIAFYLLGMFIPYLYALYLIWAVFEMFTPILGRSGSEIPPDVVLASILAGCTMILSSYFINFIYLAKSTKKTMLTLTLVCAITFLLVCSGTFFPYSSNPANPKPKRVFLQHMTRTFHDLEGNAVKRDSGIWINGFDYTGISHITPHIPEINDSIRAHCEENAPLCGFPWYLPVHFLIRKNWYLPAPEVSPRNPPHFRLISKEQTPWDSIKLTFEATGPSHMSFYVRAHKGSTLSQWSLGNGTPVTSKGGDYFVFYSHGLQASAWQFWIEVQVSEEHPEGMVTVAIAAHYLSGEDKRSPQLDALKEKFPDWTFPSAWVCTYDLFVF
UniProt Q9UNN5: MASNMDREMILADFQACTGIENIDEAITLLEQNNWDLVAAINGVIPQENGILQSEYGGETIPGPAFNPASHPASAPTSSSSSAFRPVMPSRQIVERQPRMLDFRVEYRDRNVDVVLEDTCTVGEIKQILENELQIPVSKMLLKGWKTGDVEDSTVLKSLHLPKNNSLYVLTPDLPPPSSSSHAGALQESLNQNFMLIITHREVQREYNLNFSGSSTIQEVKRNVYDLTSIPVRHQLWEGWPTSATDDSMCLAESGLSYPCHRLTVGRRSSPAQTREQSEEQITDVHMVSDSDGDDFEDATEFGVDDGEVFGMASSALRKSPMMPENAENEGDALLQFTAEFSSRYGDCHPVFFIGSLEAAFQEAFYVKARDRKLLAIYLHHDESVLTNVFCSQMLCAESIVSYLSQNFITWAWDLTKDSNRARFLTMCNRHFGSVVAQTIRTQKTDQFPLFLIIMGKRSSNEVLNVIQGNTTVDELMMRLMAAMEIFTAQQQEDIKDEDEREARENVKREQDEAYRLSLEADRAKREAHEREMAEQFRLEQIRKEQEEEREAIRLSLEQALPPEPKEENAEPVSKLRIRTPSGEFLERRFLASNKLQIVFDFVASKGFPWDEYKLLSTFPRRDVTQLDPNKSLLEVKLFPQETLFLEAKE
UniProt Q96B26, whole entry, looked up: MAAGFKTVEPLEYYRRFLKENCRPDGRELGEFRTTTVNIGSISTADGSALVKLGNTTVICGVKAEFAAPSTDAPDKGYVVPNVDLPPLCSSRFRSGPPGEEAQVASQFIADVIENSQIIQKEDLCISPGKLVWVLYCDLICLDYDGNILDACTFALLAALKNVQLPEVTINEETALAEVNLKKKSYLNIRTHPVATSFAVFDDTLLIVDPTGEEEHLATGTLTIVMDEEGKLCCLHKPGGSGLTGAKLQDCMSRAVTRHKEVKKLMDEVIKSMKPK
UniProt Q9Y282: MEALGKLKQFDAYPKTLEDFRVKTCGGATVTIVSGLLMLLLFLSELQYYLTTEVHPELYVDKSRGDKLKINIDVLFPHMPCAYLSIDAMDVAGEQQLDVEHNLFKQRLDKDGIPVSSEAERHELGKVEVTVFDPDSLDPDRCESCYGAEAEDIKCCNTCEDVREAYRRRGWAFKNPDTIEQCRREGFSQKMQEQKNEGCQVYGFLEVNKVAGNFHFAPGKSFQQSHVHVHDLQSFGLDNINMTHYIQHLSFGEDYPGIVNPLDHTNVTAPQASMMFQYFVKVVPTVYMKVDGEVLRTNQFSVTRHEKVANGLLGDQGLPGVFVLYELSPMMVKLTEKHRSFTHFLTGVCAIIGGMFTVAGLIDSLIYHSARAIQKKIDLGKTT
UniProt P00742, whole entry, looked up: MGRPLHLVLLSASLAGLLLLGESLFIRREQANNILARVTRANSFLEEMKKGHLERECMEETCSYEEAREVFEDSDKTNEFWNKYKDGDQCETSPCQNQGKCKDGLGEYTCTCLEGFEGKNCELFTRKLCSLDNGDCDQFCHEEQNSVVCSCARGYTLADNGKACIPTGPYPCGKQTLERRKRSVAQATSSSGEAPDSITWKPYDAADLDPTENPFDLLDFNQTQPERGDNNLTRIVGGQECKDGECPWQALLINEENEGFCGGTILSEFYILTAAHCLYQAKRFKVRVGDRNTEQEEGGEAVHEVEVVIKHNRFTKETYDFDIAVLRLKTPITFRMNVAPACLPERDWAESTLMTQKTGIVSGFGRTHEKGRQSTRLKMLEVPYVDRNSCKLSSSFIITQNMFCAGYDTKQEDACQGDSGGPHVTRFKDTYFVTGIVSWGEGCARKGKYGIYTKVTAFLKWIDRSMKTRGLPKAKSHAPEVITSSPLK
UniProt Q9NZ08: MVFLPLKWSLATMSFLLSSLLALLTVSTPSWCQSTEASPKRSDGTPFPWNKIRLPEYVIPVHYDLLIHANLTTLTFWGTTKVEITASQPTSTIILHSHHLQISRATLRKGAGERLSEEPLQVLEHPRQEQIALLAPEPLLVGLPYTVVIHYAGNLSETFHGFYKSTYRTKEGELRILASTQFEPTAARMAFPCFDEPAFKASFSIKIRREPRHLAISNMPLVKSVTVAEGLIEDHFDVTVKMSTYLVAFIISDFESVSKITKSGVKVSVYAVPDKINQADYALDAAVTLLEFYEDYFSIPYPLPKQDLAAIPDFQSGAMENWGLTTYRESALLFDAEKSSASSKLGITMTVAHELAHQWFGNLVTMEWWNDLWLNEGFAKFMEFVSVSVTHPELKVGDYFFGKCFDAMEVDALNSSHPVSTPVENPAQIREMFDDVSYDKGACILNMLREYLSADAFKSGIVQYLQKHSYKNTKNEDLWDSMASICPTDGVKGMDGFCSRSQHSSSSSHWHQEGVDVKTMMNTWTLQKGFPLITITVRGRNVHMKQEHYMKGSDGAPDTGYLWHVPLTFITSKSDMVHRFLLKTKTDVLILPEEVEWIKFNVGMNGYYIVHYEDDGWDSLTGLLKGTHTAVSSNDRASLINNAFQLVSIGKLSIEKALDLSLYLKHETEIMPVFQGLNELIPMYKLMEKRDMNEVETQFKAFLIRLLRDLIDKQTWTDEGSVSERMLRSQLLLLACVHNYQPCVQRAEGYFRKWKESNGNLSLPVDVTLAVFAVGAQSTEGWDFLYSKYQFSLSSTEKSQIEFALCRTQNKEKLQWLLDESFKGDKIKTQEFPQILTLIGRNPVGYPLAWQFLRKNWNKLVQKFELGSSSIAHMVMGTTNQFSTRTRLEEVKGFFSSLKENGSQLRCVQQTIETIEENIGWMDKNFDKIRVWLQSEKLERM
UniProt P11474: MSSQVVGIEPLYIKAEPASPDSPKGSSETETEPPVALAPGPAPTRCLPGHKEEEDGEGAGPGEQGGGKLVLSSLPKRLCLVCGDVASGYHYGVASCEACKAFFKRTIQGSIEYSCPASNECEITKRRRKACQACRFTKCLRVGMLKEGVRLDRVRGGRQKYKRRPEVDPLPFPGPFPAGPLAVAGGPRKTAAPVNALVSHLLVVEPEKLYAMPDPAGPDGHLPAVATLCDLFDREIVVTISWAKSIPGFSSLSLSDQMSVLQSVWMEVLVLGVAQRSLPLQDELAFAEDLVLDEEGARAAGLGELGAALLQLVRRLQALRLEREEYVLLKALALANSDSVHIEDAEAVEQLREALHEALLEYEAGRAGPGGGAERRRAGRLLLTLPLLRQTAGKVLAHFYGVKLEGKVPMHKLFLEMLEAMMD

log2 fold change, inactive:
ERMP1 (UniProt Q7Z2K6) 0.002
FAF1 (UniProt Q9UNN5) 0.016
EXOSC8 (UniProt Q96B26) -0.014
ERGIC3 isoform 3 (UniProt Q9Y282) 0.01
F10 (UniProt P00742) 0.016
ERAP1 isoform 2 (UniProt Q9NZ08) 0.004
ESRRA (UniProt P11474) 0.055

— the supplement of paper PMC10849652
